The series can be described thus: Wetting time (skein test). It counts as physicochemical. The note with it: average of three measurements; for Wetting time (1 g/L, s): 1 g/L surfactant; for Wetting time (2 g/L, s): 2 g/L surfactant.

SMILES strings stand for the structures.

Turning to `CCCC(C)CCCC(C)CCCOS(=O)(=O)O` (stereo not shown) [Entry 8, 4,8-dimethylundecan-1-sulfate], the “Wetting time (1 g/L, s)” value is given as 6.1 s and the “Wetting time (2 g/L, s)” value was 2.3 s.
On the same counts, the results for `CCCCCCCCCCCCCOS(=O)(=O)[O-].[Na+]` [Entry 5, Sodium n-Tridecyl Sulfate] are 6.3 s and 3.1 s.

Source of the values: US20240239729A1, “Functionalization of Lightly Branched Olefin Oligomers” (priority 2021, published 2024).
